Assay results published in PMC12646006.
Results are given in words; binding and its absence hold for the method and conditions named. In cells and extracts the contact can be indirect. Binding calls can cover weak binding; strength is not graded here. Tags and fused reporters may be left off the sequences shown.

Target: Flag-3D of CVB3 (RNA-dependent RNA polymerase 3D^pol of Coxsackievirus B3) (Coxsackievirus B3)
Assay: co-IP; HEK293T cells transfected with the indicated plasmids for 48 h; lysate (NP40 lysis buffer) on anti-Flag magnetic beads, mouse IgG as control; immunoblot; the legend calls it 'denatured Co-IP'

B1: HA-TRIM4 (tripartite motif 4, E3 ligase) (enzyme, UniProt Q9C037 1-500)
chain: MEAEDIQEELTCPICLDYFQDPVSIECGHNFCRGCLHRNWAPGGGPFPCPECRHPSAPAALRPNWALARLTEKTQRRRLGPVPPGLCGRHWEPLRLFCEDDQRPVCLVCRESQEHQTHAMAPIDEAFESYRTGNFDIHVDEWKRRLIRLLLYHFKQEEKLLKSQRNLVAKMKKVMHLQDVEVKNATQWKDKIKSQRMRISTEFSKLHNFLVEEEDLFLQRLNKEEEETKKKLNENTLKLNQTIASLKKLILEVGEKSQAPTLELLQNPKEVLTRSEIQDVNYSLEAVKVKTVCQIPLMKEMLKRFQVAVNLAEDTAHPKLVFSQEGRYVKNTASASSWPVFSSAWNYFAGWRNPQKTAFVERFQHLPCVLGKNVFTSGKHYWEVESRDSLEVAVGVCREDVMGITDRSKMSPDVGIWAIYWSAAGYWPLIGFPGTPTQQEPALHRVGVYLDRGTGNVSFYSAVDGVHLHTFSCSSVSRLRPFFWLSPLASLVIPPVTDRK
binding: binds
